# In the supplement of paper PMC7666118:
# By UniProt entry, the sequences of proteins in these tests, tags left out. Where a name states a change or a piece, a line headed by the entry shows the natural chain unless it says otherwise.
# UniProt Q9Y3D6: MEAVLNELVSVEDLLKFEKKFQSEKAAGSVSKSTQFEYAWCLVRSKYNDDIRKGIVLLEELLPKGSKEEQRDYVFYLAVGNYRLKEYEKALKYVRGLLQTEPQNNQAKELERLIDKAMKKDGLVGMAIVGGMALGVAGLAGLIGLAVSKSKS
# UniProt Q92538, whole entry: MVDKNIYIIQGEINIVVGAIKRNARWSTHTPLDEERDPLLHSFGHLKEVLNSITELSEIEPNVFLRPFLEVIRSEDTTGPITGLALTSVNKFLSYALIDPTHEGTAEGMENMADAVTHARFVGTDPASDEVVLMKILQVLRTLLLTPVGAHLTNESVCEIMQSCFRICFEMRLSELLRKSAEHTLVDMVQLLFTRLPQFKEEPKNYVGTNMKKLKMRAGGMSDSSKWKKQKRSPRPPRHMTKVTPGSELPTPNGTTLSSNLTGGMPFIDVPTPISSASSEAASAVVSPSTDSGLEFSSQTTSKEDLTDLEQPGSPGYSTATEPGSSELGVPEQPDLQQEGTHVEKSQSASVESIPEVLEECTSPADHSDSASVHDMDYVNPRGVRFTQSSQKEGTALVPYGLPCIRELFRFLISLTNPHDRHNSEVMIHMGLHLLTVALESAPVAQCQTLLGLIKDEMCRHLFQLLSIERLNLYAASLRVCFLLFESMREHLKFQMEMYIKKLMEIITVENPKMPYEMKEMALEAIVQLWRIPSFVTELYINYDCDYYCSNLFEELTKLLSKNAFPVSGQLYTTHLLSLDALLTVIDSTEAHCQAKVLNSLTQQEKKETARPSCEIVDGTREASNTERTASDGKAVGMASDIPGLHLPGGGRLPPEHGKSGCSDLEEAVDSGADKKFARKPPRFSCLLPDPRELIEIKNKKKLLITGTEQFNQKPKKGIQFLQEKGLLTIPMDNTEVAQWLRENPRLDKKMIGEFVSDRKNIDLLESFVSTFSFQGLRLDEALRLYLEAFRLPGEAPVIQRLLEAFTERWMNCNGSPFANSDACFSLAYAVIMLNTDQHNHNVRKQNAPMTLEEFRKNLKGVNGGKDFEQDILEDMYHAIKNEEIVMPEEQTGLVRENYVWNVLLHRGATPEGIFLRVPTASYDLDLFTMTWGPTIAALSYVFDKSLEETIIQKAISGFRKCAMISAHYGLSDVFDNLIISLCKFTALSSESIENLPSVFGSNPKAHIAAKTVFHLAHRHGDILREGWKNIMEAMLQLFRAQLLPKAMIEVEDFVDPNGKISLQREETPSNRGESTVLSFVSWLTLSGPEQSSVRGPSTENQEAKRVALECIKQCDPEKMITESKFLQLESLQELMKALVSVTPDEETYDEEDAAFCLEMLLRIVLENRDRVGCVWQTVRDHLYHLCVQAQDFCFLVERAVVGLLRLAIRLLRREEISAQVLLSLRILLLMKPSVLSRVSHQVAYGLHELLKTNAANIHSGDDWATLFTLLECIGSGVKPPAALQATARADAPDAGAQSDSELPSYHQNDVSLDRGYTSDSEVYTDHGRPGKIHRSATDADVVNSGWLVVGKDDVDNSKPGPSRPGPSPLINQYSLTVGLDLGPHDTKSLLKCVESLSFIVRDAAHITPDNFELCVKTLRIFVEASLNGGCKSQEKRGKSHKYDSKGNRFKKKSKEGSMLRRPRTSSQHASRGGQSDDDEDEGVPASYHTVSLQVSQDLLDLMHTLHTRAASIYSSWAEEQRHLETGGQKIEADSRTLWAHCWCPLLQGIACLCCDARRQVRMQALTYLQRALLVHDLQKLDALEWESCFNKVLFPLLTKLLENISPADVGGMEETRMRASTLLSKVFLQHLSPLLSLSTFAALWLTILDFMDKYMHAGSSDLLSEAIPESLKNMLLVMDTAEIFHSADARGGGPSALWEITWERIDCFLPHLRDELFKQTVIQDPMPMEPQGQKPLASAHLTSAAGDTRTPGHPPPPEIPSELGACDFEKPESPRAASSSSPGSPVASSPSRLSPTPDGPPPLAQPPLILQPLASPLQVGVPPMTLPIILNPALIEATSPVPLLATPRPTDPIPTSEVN
# UniProt Q04760: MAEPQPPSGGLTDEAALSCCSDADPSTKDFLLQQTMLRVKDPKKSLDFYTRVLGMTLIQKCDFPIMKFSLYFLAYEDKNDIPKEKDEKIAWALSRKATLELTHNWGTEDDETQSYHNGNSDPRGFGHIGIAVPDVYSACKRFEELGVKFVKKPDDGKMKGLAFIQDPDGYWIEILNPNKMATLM
# UniProt O94923: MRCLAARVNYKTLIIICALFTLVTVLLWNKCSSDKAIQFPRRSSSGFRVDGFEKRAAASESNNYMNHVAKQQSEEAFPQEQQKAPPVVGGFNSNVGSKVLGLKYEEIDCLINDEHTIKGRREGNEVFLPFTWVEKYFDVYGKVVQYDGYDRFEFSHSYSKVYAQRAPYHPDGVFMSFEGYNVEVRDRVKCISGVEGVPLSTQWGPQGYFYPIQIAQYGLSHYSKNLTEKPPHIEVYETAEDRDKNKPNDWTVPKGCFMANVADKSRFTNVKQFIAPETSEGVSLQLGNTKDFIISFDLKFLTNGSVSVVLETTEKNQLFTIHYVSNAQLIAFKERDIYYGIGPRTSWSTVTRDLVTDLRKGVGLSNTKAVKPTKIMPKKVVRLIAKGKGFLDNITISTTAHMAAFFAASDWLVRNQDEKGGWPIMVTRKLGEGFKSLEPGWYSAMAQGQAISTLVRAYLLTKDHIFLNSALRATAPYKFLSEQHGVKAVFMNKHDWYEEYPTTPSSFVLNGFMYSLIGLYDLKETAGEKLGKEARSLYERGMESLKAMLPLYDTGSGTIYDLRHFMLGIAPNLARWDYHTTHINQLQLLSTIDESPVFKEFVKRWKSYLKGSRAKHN
# UniProt P06280: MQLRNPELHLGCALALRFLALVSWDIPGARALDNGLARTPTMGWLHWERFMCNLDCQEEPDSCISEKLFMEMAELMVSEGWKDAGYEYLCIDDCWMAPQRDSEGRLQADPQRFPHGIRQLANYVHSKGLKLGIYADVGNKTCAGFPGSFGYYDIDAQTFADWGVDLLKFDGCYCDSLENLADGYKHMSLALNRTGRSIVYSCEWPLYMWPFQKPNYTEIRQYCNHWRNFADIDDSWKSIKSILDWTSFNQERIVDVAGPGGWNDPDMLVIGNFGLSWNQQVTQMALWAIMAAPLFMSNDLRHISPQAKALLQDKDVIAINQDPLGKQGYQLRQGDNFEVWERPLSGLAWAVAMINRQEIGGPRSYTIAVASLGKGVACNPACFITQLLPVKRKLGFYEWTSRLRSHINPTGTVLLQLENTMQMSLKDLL
# UniProt P62942, whole entry: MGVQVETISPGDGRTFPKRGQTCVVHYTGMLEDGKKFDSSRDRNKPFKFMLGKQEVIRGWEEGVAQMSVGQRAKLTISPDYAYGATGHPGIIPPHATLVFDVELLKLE
# UniProt Q68CQ7: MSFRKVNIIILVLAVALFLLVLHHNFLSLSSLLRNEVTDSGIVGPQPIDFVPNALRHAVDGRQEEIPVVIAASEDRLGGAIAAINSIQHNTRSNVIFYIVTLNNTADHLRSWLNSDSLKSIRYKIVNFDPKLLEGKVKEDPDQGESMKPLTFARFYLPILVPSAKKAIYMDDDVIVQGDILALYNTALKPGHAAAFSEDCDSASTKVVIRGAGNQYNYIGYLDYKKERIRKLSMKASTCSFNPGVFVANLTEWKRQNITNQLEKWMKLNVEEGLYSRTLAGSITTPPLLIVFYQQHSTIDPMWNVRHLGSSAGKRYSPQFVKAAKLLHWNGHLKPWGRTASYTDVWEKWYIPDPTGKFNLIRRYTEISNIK
# UniProt Q5JSP0: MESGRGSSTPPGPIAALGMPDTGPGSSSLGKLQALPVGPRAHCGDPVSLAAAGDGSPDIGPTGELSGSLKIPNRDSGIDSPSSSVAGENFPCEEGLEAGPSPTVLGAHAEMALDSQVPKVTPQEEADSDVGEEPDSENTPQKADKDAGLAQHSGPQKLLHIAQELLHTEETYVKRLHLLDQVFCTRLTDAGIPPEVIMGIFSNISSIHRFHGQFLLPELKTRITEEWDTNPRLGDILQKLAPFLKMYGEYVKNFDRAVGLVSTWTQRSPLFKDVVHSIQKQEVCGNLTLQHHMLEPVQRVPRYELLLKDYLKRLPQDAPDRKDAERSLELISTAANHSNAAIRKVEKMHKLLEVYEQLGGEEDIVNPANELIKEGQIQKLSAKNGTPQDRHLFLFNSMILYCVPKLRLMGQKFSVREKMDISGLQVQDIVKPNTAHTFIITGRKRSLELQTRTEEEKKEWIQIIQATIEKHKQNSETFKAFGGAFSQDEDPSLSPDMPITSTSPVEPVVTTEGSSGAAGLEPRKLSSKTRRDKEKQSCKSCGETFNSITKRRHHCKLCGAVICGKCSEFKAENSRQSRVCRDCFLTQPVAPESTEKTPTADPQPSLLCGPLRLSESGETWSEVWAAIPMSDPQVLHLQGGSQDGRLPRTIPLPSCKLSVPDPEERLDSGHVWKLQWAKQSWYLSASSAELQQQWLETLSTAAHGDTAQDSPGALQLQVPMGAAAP
# UniProt Q9H3K2: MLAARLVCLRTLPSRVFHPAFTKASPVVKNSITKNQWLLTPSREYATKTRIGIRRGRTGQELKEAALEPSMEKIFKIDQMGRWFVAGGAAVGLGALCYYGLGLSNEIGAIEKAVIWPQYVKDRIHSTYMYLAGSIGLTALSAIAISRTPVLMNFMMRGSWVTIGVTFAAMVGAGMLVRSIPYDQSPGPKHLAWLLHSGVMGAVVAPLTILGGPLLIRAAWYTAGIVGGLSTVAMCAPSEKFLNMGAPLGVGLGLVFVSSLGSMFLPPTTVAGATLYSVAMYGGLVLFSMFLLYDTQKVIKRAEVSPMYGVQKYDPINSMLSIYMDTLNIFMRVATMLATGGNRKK
# UniProt Q8NB91: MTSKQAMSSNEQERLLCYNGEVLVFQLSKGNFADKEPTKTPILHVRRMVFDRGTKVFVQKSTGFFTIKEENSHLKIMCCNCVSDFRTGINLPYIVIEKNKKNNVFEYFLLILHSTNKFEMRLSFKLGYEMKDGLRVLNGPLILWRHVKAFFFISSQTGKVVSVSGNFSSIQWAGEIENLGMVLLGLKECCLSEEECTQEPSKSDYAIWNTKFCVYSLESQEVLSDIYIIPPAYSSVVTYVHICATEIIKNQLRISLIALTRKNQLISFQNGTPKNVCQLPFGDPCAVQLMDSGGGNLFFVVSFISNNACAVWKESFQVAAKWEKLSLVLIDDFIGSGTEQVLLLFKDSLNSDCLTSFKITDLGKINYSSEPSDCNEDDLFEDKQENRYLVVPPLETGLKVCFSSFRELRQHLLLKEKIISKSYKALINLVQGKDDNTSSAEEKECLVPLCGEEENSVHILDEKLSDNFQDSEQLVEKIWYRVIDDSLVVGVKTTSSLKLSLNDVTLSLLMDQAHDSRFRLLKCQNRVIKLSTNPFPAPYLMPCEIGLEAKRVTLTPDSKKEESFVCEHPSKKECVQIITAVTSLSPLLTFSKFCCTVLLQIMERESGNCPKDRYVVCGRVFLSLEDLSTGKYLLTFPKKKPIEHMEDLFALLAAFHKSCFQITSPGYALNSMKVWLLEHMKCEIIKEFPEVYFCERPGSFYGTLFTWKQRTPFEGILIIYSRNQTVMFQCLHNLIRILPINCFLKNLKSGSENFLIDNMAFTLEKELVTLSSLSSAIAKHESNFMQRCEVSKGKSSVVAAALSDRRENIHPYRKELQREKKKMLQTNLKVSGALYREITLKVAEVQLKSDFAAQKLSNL
# UniProt P30273: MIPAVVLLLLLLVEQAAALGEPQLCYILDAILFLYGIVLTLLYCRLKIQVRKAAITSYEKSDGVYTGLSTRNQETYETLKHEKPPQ
# UniProt P15408: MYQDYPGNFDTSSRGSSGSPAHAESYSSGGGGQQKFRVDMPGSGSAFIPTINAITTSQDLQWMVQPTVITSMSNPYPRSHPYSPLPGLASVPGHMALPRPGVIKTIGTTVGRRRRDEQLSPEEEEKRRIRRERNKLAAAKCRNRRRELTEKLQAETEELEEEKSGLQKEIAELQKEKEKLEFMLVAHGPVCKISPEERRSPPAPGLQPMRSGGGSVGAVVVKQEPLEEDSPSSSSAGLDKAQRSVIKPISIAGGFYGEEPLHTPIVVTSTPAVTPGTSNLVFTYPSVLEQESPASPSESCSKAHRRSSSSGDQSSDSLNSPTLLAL
# UniProt P04062: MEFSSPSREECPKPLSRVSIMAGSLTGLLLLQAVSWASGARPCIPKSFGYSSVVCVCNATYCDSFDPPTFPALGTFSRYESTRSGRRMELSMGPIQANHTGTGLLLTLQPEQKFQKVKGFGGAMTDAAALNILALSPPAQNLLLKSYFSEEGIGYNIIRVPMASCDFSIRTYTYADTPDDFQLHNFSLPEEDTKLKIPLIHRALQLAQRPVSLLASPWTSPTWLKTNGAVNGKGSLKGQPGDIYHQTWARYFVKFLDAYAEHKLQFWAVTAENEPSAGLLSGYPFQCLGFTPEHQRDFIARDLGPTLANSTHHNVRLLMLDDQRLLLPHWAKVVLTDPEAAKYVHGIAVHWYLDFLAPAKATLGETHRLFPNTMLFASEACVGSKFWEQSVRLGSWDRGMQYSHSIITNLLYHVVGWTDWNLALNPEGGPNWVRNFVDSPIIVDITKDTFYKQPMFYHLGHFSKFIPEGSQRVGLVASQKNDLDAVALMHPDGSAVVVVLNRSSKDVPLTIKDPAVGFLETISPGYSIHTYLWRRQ
# Some of the results follow.
# Compound: COc1ccc(Cn2ccc3cc(C)c(C(=O)NO)cc32)cc1
# Assay: dose-dependent thermal stabilisation call (2D-TPP, DLPTP, 10% FDR) (binary (1 = stabilised)); higher = stabilised by the compound
# Conditions: system: HL-60 intact cells; concentration range 0.04-10 µM
# Protocol: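 2D thermal proteome profiling in intact HL-60 cells treated with BRD-3811 (0, 0.04, 0.29, 2, 10 uM) for 90 min at 37 C, then heated 3 min at one of 12 temperatures (42-63.9 C). Soluble protein was quantified by TMT10 MS. The value is the DLPTP call of the paper: dose-dependent thermal stabilisation over all temperatures at 10% FDR (F-test of a dose-response against a flat model); one experiment, one call per tested protein.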
row,Target,dose-dependent thermal stabilisation call
1,GART (UniProt P22102),inactive: 0
2,GIT1 (UniProt Q9Y2X7),inactive: 0
3,FCHSD2 (UniProt O94868),inactive: 0
4,FIS1 (UniProt Q9Y3D6),inactive: 0
5,GBF1 (UniProt Q92538),inactive: 0
6,FASN (UniProt P49327),inactive: 0
7,GLO1 (UniProt Q04760),inactive: 0
8,GABPA (UniProt Q06546),inactive: 0
9,GLCE (UniProt O94923),inactive: 0
10,FEM1B (UniProt Q9UK73),inactive: 0
11,FLNB (UniProt O75369),inactive: 0
12,GGH (UniProt Q92820),inactive: 0
13,GMEB1 (UniProt Q9Y692),inactive: 0
14,GNAI1 (UniProt P63096),inactive: 0
15,GLA (UniProt P06280),inactive: 0
16,GDE1 (UniProt Q9NZC3),inactive: 0
17,FKBP1A (UniProt P62942),inactive: 0
18,GDF1 (UniProt P27539),inactive: 0

row,Target,dose-dependent thermal stabilisation call
1,FAM54B (UniProt Q9H019),inactive: 0
2,GA17 (UniProt Q7L2H7),inactive: 0
3,FKBP3 (UniProt Q00688),inactive: 0
4,FBXO45 (UniProt P0C2W1),inactive: 0
5,GK (UniProt P32189),inactive: 0
6,GAA (UniProt P10253),inactive: 0
7,GLT8D1 (UniProt Q68CQ7),inactive: 0
8,FBXO28 (UniProt Q9NVF7),inactive: 0
9,FGD3 (UniProt Q5JSP0),inactive: 0
10,FHOD1 (UniProt Q9Y613),inactive: 0
11,FGFR1 (UniProt P11362),inactive: 0
12,FIP1L1 (UniProt Q6UN15),inactive: 0
13,GHITM (UniProt Q9H3K2),inactive: 0
14,FARS2 (UniProt O95363),inactive: 0
15,FANCB (UniProt Q8NB91),inactive: 0
16,FCER1G (UniProt P30273),inactive: 0
17,FOSL2 (UniProt P15408),inactive: 0
18,GBA (UniProt P04062),inactive: 0

# Some of the entries so far, as tab-separated lines:
row	Target	dose-dependent thermal stabilisation call
10	FHOD1 (UniProt Q9Y613)	inactive: 0
11	FGFR1 (UniProt P11362)	inactive: 0
